Data as given in patent US20100190693A1.
These are yes or no findings as the source states them, for the method shown. For some assays here: In cells and extracts the contact can be indirect. Some results given as binding are weak or reduced against the parent protein; the word gives no strength.

T1: TORC1 (Transducer of Regulated CREB activity 1) (UniProt Q6UUV9)
T1 sequence (looked up): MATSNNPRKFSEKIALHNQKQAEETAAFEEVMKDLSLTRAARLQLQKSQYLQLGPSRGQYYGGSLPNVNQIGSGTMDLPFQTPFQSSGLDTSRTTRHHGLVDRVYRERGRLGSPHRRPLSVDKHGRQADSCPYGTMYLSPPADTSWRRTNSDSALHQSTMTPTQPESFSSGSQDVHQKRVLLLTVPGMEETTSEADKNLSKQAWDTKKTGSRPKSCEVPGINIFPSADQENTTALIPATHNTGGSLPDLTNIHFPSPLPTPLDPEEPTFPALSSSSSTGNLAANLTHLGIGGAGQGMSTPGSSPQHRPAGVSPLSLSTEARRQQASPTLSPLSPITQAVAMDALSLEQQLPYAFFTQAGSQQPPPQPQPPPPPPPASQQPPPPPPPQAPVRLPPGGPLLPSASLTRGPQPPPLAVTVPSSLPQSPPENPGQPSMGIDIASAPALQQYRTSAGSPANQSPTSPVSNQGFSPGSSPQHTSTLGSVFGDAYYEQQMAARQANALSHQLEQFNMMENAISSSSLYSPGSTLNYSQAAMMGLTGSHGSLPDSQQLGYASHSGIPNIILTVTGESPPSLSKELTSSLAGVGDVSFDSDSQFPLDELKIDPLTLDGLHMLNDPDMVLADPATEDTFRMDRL

T2: TORC N-terminal coiled-coil domain (TORC1-129) (UniProt Q6UUV9)
T2 sequence (looked up): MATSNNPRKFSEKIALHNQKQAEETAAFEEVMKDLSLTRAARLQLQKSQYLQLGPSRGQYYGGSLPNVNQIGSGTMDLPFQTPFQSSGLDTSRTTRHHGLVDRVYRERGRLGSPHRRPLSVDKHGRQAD


Key:
[1] = molecular target: T1, TORC1 (Transducer of Regulated CREB activity 1); assay: pull down assay
[2] = molecular target: T2, TORC N-terminal coiled-coil domain (TORC1-129); assay: GST pull-down of 35S-labeled TORC1

Row | binding [1] | binding [2] | Binder
1 | binds |  | LENRVAVLENQNKTLIEELKALKDLYCHKSD (peptide, UniProt P16220-1 311-341, looked up) [CREB leucine zipper motif alone]
2 |  | binds | TORC1 (Transducer of Regulated CREB activity 1) (protein, UniProt Q6UUV9 1-634, looked up) MATSNNPRKFSEKIALHNQKQAEETAAFEEVMKDLSLTRAARLQLQKSQYLQLGPSRGQYYGGSLPNVNQIGSGTMDLPFQTPFQSSGLDTSRTTRHHGLVDRVYRERGRLGSPHRRPLSVDKHGRQADSCPYGTMYLSPPADTSWRRTNSDSALHQSTMTPTQPESFSSGSQDVHQKRVLLLTVPGMEETTSEADKNLSKQAWDTKKTGSRPKSCEVPGINIFPSADQENTTALIPATHNTGGSLPDLTNIHFPSPLPTPLDPEEPTFPALSSSSSTGNLAANLTHLGIGGAGQGMSTPGSSPQHRPAGVSPLSLSTEARRQQASPTLSPLSPITQAVAMDALSLEQQLPYAFFTQAGSQQPPPQPQPPPPPPPASQQPPPPPPPQAPVRLPPGGPLLPSASLTRGPQPPPLAVTVPSSLPQSPPENPGQPSMGIDIASAPALQQYRTSAGSPANQSPTSPVSNQGFSPGSSPQHTSTLGSVFGDAYYEQQMAARQANALSHQLEQFNMMENAISSSSLYSPGSTLNYSQAAMMGLTGSHGSLPDSQQLGYASHSGIPNIILTVTGESPPSLSKELTSSLAGVGDVSFDSDSQFPLDELKIDPLTLDGLHMLNDPDMVLADPATEDTFRMDRL
